# Experimental data from paper PMC10046738, “Detection of Alpha Fetoprotein Based on AIEgen Nanosphere Labeled Aptamer Combined with Sandwich Structure of Magnetic Gold Nanocomposites”.
# The chains behind the UniProt entries cited, without tags or fusion partners. Residues count along the entry.
# UniProt P02771, 19-609: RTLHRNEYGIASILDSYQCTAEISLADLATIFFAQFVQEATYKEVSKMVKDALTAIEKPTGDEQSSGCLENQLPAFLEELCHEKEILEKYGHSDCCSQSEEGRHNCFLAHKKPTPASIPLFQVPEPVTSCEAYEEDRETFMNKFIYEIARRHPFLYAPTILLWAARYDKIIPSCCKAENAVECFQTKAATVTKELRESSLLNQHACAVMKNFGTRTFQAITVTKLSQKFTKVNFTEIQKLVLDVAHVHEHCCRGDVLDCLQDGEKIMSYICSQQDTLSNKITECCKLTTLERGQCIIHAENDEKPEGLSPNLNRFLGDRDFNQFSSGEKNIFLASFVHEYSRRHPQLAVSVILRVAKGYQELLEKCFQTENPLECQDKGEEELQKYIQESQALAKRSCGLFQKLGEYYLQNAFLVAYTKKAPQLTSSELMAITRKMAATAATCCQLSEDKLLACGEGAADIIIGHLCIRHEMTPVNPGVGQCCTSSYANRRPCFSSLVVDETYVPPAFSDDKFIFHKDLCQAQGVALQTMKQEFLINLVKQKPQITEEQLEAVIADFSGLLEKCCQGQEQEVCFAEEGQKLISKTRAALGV
# Construct, isoform or probe ends are uncertain for at least one entry. At least one verdict rests on a figure or table, not on a statement of the authors.
# Target: alpha-fetoprotein (AFP) (UniProt P02771)
# Test: fluorescence sandwich aptasensor (magnetic capture)
# Details: AIEgen-labeled reporter aptamer, AFP captured by aptamer 1; 5'-amino; PBS 10 mM, pH 7.4 (aptamer 1 immobilization); room temperature, 30 min AFP then 30 min aptamer 2; 15 nM aptamer 1, 8 ug/mL AIEgen aptamer 2, 10 ug/mL Fe3O4@MPTMS@AuNPs; label: AIEgen polystyrene nanosphere; single-stranded DNA
sequence,measurement,value
"GTGACGCTCCTAACGCTGACTCAGGTGCAGTTCTCGACTCGGTCTTGATGTGGGTCCTGTCCGTCCGAACCAATC [Aptamer 2 (AFP aptamer, 5'-NH2)]",binding result,binds
